From doi:10.1101/2022.10.19.512833 (bioRxiv, 2022) come the findings set out here.

These are yes or no findings as the source states them, for the method shown. Binding seen in cells or lysates may run through a third protein. A yes stands for co-enrichment or nearness to the bait. Other partners may have been found.

This assay has as its target GAG_(449-464) (HIV-1) biotinylated peptide, double repeat (Human immunodeficiency virus type 1 (HIV-1)) (UniProt P04591). As to the kind of experiment: affinity purification with mass spectrometry.

MVB12A (from UniProt Q96EY5 1-273): the binding entry was “binds”.

VPS28 (from UniProt Q9UK41 1-221): the binding result is reported as “binds”.

For VPS37C (from UniProt A5D8V6 1-355), the binding entry is given as “binds”.
